For one substance, binding results are on record in paper PMC2672601.

For the experiment, the target named is T1, VGluRδ2 (fusion between Venus and the glutamate receptor delta2, GluRδ2) (UniProt Q61625).
T1 sequence: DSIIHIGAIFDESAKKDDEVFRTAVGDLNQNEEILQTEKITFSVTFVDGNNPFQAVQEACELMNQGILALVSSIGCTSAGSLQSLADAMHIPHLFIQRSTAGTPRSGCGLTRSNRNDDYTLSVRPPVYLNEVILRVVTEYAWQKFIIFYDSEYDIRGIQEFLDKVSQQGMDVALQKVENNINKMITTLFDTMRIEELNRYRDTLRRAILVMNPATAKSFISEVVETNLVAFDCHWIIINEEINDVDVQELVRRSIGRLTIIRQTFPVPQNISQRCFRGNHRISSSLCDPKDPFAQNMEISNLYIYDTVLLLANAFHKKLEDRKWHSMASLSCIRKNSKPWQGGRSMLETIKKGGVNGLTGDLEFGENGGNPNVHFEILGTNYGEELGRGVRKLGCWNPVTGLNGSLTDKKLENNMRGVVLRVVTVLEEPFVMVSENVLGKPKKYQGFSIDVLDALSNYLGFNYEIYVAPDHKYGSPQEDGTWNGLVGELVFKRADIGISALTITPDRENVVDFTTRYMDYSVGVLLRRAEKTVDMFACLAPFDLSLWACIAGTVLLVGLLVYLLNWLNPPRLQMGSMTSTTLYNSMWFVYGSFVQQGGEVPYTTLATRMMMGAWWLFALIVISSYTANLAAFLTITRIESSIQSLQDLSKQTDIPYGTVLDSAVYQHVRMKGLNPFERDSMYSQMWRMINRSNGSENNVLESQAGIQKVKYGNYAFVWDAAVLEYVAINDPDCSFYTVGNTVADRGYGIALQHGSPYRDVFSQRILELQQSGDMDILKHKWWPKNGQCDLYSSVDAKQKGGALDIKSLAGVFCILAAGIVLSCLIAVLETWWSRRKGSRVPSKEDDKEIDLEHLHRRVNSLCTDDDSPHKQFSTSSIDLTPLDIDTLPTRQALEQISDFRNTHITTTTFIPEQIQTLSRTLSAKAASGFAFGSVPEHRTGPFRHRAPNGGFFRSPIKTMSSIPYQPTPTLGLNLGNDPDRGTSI
As to the kind of experiment: co-IP; anti-GFP antibody on Dynabeads M-270 epoxy beads; pooled excitatory synaptic gel-filtration fractions of a crude synaptosome fraction (P2) solubilised in 0.5% Triton X-100, from ten cerebella of Pcp2/VGluRδ2 or Pcp2/eGFP mice; 1 h at 4 °C; wash with 300 mM NaCl, 0.5% Triton X-100; western blot of the affinity-purified samples.

No constants are given. Whether binding was seen depends on the method and setting. Binding seen in cells or lysates may run through a third protein. Binding can be weak; no strength is given. Sequences can lack the tags named with a protein.

For “Homer (mouse (endogenous in cerebellum))”, the binding entry is listed as “binds”.
